The list does not hold the whole screen: it gathers tests that were run many times, whatever their T/C, doses with no T/C, and many T/C values between a quarter and a half above the control. Further doses and runs are listed elsewhere. T/C: endpoint of the treated group in % of that of the vehicle group. Schedules are NCI's codes, taken here to give the interval after Q, in days (D) or hours (H), and the number of doses after X. Some T/C values are followed by the survivors on the day toxicity was checked, most often the fifth; where none is given, no animal had died by that day. Some entries hold several experiments; the results are listed from low to high. Some entries give survivors of the animals treated and no T/C: the source files T/C as zero there, which appears to mark a toxic dose or a test without result, not a measured value. Survivors were counted at the toxicity check, usually on the fifth day, unless a day is given; later deaths do not show.
System: BDF1 mice, Adenocarcinoma 755 s.c., tumor weight T/C
Assay: NCI In Vivo Anticancer Drug Screen. Data for tumor model Adenocarcinoma 755 (subcutaneous) in B6D2F1 (BDF1) mice
Conditions: T/C endpoint: mean tumor weight, higher T/C = larger tumour; for T/C: evaluated on day 12
In short: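 Compound activity was tested in mice carrying transplanted tumors. Survival or tumor size was measured, and each value is the treated-group measurement divided by that of the vehicle-treated control group (T/C).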

[1] = dose: 200.0 mg/kg/injection, schedule: Q01DX011 (ip), vehicle: carboxymethylcellulose (CMC)
[2] = dose: 400.0 mg/kg/injection, schedule: Q01DX011 (sc), vehicle: steroid suspending solution
[3] = dose: 225.0 mg/kg/injection, schedule: Q01DX011 (ip), vehicle: methylcellulose (MC)
[4] = dose: 100.0 mg/kg/injection, schedule: Q01DX011 (ip), vehicle: other
[5] = dose: 200.0 mg/kg/injection, schedule: Q01DX011 (ip), vehicle: other
[6] = dose: 400.0 mg/kg/injection, schedule: Q01DX011 (ip), vehicle: carboxymethylcellulose (CMC)
[7] = dose: 25.75 mg/kg/injection, schedule: Q01DX011 (sc), vehicle: steroid suspending solution
[8] = dose: 51.5 mg/kg/injection, schedule: Q01DX011 (sc), vehicle: steroid suspending solution
[9] = dose: 800.0 mg/kg/injection, schedule: Q01DX011 (ip), vehicle: other
[10] = dose: 113.0 mg/kg/injection, schedule: Q01DX011 (ip), vehicle: methylcellulose (MC)
[11] = dose: 240.0 mg/kg/injection, schedule: Q01DX011 (ip), vehicle: carboxymethylcellulose (CMC)

## COC(=O)C1C2CC3c4[nH]c5cc(OC)ccc5c4CCN3CC2CC(OC(=O)c2cc(OC)c(OC)c(OC)c2)C1OC (stereo unspecified)
dose: 0.25 mg/kg/injection, schedule: Q01DX011 (ip), vehicle: saline
  T/C: 132 % of control
dose: 1.0 mg/kg/injection, schedule: Q01DX011 (ip), vehicle: saline
  T/C: 129 % of control

## CC(=O)OCC(=O)[C@@]1(O)CC[C@H]2[C@@H]3C[C@H](C)C4=CC(=O)CC[C@]4(C)[C@H]3[C@@H](O)C[C@@]21C
dose: 11.0 mg/kg/injection, schedule: Q01DX011 (sc), vehicle: steroid suspending solution
  survivor count: 6 of 10
dose: 22.0 mg/kg/injection, schedule: Q01DX011 (sc), vehicle: steroid suspending solution
  survivor count: 6 of 10
dose: 22.0 mg/kg/injection, schedule: Q01DX011 (sc), vehicle: water
  survivor count: 6 of 10
dose: 44.0 mg/kg/injection, schedule: Q01DX011 (sc), vehicle: steroid suspending solution
  survivor count: 6 of 10
dose: 88.0 mg/kg/injection, schedule: Q01DX011 (sc), vehicle: steroid suspending solution
  survivor count: 2 of 10

## C=CCn1cnc2c(Cl)ncnc21
[1]
  survivor count: 4 of 10

## CC1CN1P(=O)(Oc1ccccc1)N1CC1C (stereo unspecified)
dose: 100.0 mg/kg/injection, schedule: Q01DX011 (ip), vehicle: saline
  survivor count: 6 of 10

## c1ccc(CSc2ncnc3nc[nH]c23)cc1
dose: 12.0 mg/kg/injection, schedule: Q01DX011 (ip), vehicle: alkali diluted with saline
  survivor count: 6 of 10
dose: 25.0 mg/kg/injection, schedule: Q01DX011 (ip), vehicle: carboxymethylcellulose (CMC)
  T/C: 5 % of control
dose: 100.0 mg/kg/injection, schedule: Q01DX006 (iv), vehicle: carboxymethylcellulose (CMC)
  survivor count: 0 of 10
dose: 200.0 mg/kg/injection, schedule: Q01DX006 (iv), vehicle: carboxymethylcellulose (CMC)
  survivor count: 0 of 10
[2]
  survivor count: 6 of 10
dose: 800.0 mg/kg/injection, schedule: Q01DX011 (oral), vehicle: carboxymethylcellulose (CMC)
  survivor count: 0 of 10

## O=C(CCBr)NCCCCNC(=O)CCBr
[3]
  survivor count: 5 of 10

## CCOCCNc1ncnc2c1cnn2C
dose: 100.0 mg/kg/injection, schedule: Q01DX011 (ip), vehicle: methylcellulose (MC)
  survivor count: 4 of 10

## CN(CCO)/N=N/c1nc[nH]c1C(N)=O
dose: 375.0 mg/kg/injection, schedule: Q01DX011 (ip), vehicle: carboxymethylcellulose (CMC)
  survivor count: 5 of 10

## C=C(Br)CN(CC)CCO
[4]
  survivor count: 5 of 10
[5]
  survivor count: 0 of 10

## O=C(OCC1OC(n2cnc3c(=S)nc[nH]c32)C(OC(=O)c2ccccc2)C1OC(=O)c1ccccc1)c1ccccc1 (stereo unspecified)
dose: 16.0 mg/kg/injection, schedule: Q01DX011 (ip), vehicle: carboxymethylcellulose (CMC)
  T/C: 125 % of control [9 of 10 alive]
dose: 63.0 mg/kg/injection, schedule: Q01DX011 (ip), vehicle: carboxymethylcellulose (CMC)
  T/C: 22, 31, 35, 43 % of control
[6]
  survivor count: 6 of 10
dose: 500.0 mg/kg/injection, schedule: Q01DX011 (ip), vehicle: carboxymethylcellulose (CMC)
  survivor count: 4 of 10

## CC/C(=C(/CC)c1ccc(O)cc1)c1ccc(O)cc1
dose: 12.87 mg/kg/injection, schedule: Q01DX011 (sc), vehicle: steroid suspending solution
  T/C: 47 [7 of 10 alive], 61 [8 of 10 alive], 71 [8 of 10 alive], 72, 76 % of control
dose: 25.73 mg/kg/injection, schedule: Q01DX011 (sc), vehicle: steroid suspending solution
  survivor count: 3 of 10
[7]
  T/C: 55, 59, 74 % of control [7 of 10 alive]
  survivor count: 4 of 10
[8]
  T/C: 40 [7 of 10 alive], 46, 52, 90 % of control [9 of 10 alive]
  survivor count: 2 of 10
[2]
  survivor count: 1 of 10
dose: 500.0 mg/kg/injection, schedule: Q01DX011 (sc), vehicle: steroid suspending solution
  survivor count: 5 of 10

## CCCC(=O)OCC1OC(n2cnc3c(=S)nc[nH]c32)C(OC(=O)CCC)C1OC(=O)CCC (stereo unspecified)
[4]
  survivor count: 0 of 10
[5]
  survivor count: 0 of 10
dose: 400.0 mg/kg/injection, schedule: Q01DX011 (ip), vehicle: other
  survivor count: 0 of 10
[9]
  survivor count: 0 of 10

## [Br][Hg][CH2]C1COC([CH2][Hg][Br])CO1 (stereo unspecified)
dose: 50.0 mg/kg/injection, schedule: Q01DX011 (ip), vehicle: carboxymethylcellulose (CMC)
  survivor count: 3 of 10
dose: 100.0 mg/kg/injection, schedule: Q01DX011 (ip), vehicle: carboxymethylcellulose (CMC)
  survivor count: 0 of 10
[1]
  survivor count: 0 of 10

## CC1CN1P1(N2CC2C)=NP(N2CC2C)(N2CC2C)=NP(N2CC2C)(N2CC2C)=N1 (stereo unspecified)
dose: 75.0 mg/kg/injection, schedule: Q01DX011 (ip), vehicle: saline
  survivor count: 0 of 10
dose: 150.0 mg/kg/injection, schedule: Q01DX011 (ip), vehicle: saline
  survivor count: 0 of 10
dose: 300.0 mg/kg/injection, schedule: Q01DX011 (ip), vehicle: saline
  survivor count: 0 of 10
dose: 600.0 mg/kg/injection, schedule: Q01DX011 (ip), vehicle: saline
  survivor count: 0 of 10

## CC1CCC(n2cnc3c([N+](C)(C)C)ncnc32)O1 (stereo unspecified)
dose: 240.0 mg/kg/injection, schedule: Q01DX011 (ip), vehicle: saline
  survivor count: 0 of 10

## CN(C)[C@@H]1C(=O)C(C(=O)NCNc2nc(=S)c3[nH]cnc3[nH]2)=C(O)[C@@]2(O)C(=O)C3=C(O)c4c(O)cccc4[C@@](C)(O)[C@H]3C[C@@H]12
dose: 60.0 mg/kg/injection, schedule: Q01DX011 (ip), vehicle: carboxymethylcellulose (CMC)
  survivor count: 6 of 10

## Cn1ccc(N)nc1=O
dose: 250.0 mg/kg/injection, schedule: Q01DX011 (ip), vehicle: methylcellulose (MC)
  T/C: 127 % of control [8 of 10 alive]

## O=C(OCC1OC(n2cnc3c(=S)nc[nH]c32)C(OC(=O)c2ccc([N+](=O)[O-])cc2)C1OC(=O)c1ccc([N+](=O)[O-])cc1)c1ccc([N+](=O)[O-])cc1 (stereo unspecified)
[4]
  survivor count: 6 of 10
[9]
  survivor count: 0 of 10

## O=S(=O)(F)c1nc(Cl)c2[nH]cnc2n1
dose: 12.5 mg/kg/injection, schedule: Q01DX011 (ip), vehicle: methylcellulose (MC)
  T/C: 125 % of control [8 of 10 alive]

## CC(C)(COS(C)(=O)=O)C(=O)N1CCN(C(=O)C(C)(C)COS(C)(=O)=O)CC1
dose: 18.8 mg/kg/injection, schedule: Q01DX011 (ip), vehicle: carboxymethylcellulose (CMC)
  survivor count: 6 of 10

## O=C(CCBr)NCNC(=O)CCBr
[10]
  survivor count: 5 of 10

## CC1CN1P(=S)(N1CCCCC1)N1CC1C (stereo unspecified)
dose: 450.0 mg/kg/injection, schedule: Q01DX011 (ip), vehicle: carboxymethylcellulose (CMC)
  survivor count: 0 of 10

## NCC(=O)Nc1ccc(O)cc1
[6]
  survivor count: 2 of 10 and 4 of 10

## c1nc(SC2=NCCN2)c2[nH]cnc2n1
dose: 50.0 mg/kg/injection, schedule: Q01DX011 (ip), vehicle: saline
  survivor count: 3 of 10

## CS(=O)(=O)OCCC(=O)N1CN(C(=O)CCOS(C)(=O)=O)CN(C(=O)CCOS(C)(=O)=O)C1
[10]
  T/C: 133 % of control [9 of 10 alive]

## O=C(CCCl)N1CCc2ccccc2C1
dose: 225.0 mg/kg/injection, schedule: Q01DX011 (sc), vehicle: olive oil, sesame oil, peanut oil
  survivor count: 4 of 10

## CN(C)c1nc(Cl)nc2c1nc(Cl)n2C1CCCCO1 (stereo unspecified)
[11]
  survivor count: 0 of 10

## CSc1cc(NCc2ccccc2)nc(N)n1
[3]
  survivor count: 4 of 10

## Nc1nc(SCc2ccccc2Cl)c2ncn(C3CCCCC3)c2n1
[3]
  T/C: 126 % of control

## Cn1c(=O)c2cc[nH]c2n(C)c1=O
dose: 120.0 mg/kg/injection, schedule: Q01DX011 (ip), vehicle: carboxymethylcellulose (CMC)
  survivor count: 2 of 10
[11]
  survivor count: 0 of 10
